PubChem BioAssay AID1053208, Peter MacCallum Cancer Centre – 2014

Test: 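Genes whose silencing cuts survival of bone tumour cells only with doxorubicin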 (primary screen)
Cell system: mouse osteosarcoma cells, early-passage culture from an engineered mouse model of fibroblastic bone tumour
Knock-down reagent: siRNA pool against mouse genes, 40 nM
Time to read-out: about 120 h (48 h before drug, then 72 h with drug)
Treatment: doxorubicin 100 nM for 72 h, roughly 30-40% inhibitory dose
Measurement: 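Viability read as ATP luminescence after 72 h of 100 nM doxorubicin or none, duplicate wells averaged, scaled to non-targeting siRNA, then expressed as robust z-scores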
Reading the numbers: viability z-score with doxorubicin: higher = more viable cells under doxorubicin; viability z-score without drug: higher = more viable cells with knock-down alone
Rule for the call: 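Called active if knock-down leaves viability unchanged without drug (z within -2 to 2) but lowers it with doxorubicin (z at or under -2)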
The deposit covers about 17,000 reagents; below is an unselected part. 788 of them (4.7%) count as active. 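Calls rest on z-score classes alone; an extra cut-off of viability at most 70% of control was not applied to them.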 A number with no mark means an inactive call. Some reagents were tested in more than one well and are listed for each. Further read-outs or replicates are left out here. No sequences are given here.

Target gene	combined z-score class	viability z-score with doxorubicin	viability z-score without drug
Hpvc-ps (retired record)	no change with or without drug	-0.9	-0.17
Srrm4	no change with or without drug	-1.46	-0.17
Ccnc	no change with or without drug	0.56	-0.17
Lrit1	low cell count without drug only	-1.57	-2.19
Or52a5b	no change with or without drug	-1.01	-0.51
Iqsec1	no change with or without drug	0.11	1.52
Mkx	no change with or without drug	-1.46	-0.34
Ezh1	no change with or without drug	1.8	1.52
Gtsf1l	high cell count without drug only	-0.79	2.19
Gfi1	low cell count with doxorubicin only (active)	-2.02	-0.84
Ptcra	high cell count with and without drug	2.7	2.02
Apba2	no change with or without drug	0.56	-1.18
Lsm2	no change with or without drug	-0.9	-0.84
Crmp1	no change with or without drug	-0.34	0.17
Slc38a10	no change with or without drug	-1.12	0.34
Or52a24	no change with or without drug	0.34	0.51
Scd4	no change with or without drug	-0.34	1.35
Cadps	no change with or without drug	1.35	1.18
4930432E11Rik	high cell count without drug only	0.9	2.02
Pramel3a	no change with or without drug	1.35	-1.85
Ap2s1	no change with or without drug	0.9	0.17
Zfp687	no change with or without drug	-0.45	-1.52
Arhgap35	no change with or without drug	1.12	1.18
Get1	low cell count with doxorubicin only (active)	-2.47	-1.69
Rita1	no change with or without drug	-1.8	-0.84
Mt3	no change with or without drug	-0.79	-1.35
Timm23	low cell count with doxorubicin only (active)	-2.92	-1.85
Smco1	no change with or without drug	-0.22	0.51
Stk35	no change with or without drug	0.67	1.35
Stk35	no change with or without drug	-0.22	-1.18
Med9	no change with or without drug	1.12	0.17
Vmn1r226	no change with or without drug	1.12	-0.34
Defb7	no change with or without drug	-0.22	-0.51
Or5l14	no change with or without drug	-0.45	-0.34
